Among the data in paper PMC6240879 are binding values, retold here.

By UniProt entry, the sequences of proteins in these tests, tags left out. Residues count along the entry.
UniProt Q8BMS1, residues 37-763: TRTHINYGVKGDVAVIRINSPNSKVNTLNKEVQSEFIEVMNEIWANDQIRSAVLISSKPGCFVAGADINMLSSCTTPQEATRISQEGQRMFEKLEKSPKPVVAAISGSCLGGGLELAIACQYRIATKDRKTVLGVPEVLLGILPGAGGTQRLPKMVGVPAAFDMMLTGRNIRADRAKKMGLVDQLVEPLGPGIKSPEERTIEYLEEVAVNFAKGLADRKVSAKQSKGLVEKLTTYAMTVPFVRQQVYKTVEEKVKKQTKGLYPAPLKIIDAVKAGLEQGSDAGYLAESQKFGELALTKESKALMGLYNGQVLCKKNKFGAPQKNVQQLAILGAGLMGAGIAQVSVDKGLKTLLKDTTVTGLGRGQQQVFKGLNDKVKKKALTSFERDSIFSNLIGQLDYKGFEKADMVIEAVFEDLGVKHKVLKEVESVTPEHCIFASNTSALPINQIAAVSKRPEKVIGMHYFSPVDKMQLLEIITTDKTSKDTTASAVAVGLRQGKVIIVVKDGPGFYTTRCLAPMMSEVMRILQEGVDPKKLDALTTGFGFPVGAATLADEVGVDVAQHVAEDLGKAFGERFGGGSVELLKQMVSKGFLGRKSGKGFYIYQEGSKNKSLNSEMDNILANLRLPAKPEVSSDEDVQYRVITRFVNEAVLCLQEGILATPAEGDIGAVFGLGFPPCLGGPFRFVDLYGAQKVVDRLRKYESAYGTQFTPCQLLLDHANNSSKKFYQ

The experiment has as its target T1, GCN5 general control of amino acid synthesis 5-like 1 (GCN5L1) (mouse (endogenous in mouse liver)) (UniProt O55102).
T1 sequence: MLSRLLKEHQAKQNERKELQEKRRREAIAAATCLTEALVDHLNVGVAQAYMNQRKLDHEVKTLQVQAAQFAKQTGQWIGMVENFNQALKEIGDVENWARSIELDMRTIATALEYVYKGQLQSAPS
The experiment in a line: co-IP; mouse liver tissue lysate in 1x CHAPS buffer, incubated overnight at 4 °C with the relevant antibody or an IgG control; Protein G-agarose beads, washed with CHAPS buffer, eluted in LDS sample buffer at 95 °C; Western blot. (In general: A western blot detects proteins with antibodies after separation by electrophoresis.)

No constants are given. Whether binding was seen depends on the method and setting. Binding seen in cells or lysates may run through a third protein. Some results given as binding are weak or reduced against the parent protein; the word gives no strength.

“hydroxyacyl-CoA dehydrogenase trifunctional multienzyme complex subunit α (HADHA) (from UniProt Q8BMS1 37-763)”: the binding result was “binds”.
